Measurements: patent US10085953B2, “Skin cancer treatment” (Avexxin AS, priority 2014, dated 2018)
Some entries share one result that the patent states for a list of compounds. At least one compound was matched to its structure with a doubt left.

Test system: EGF-induced AA release in HaCaT keratinocytes
Assay: [3H]-Arachidonic acid release assay in EGF-stimulated HaCaT keratinocytes
Assay type: cell-based, human
Conditions: 2 hrs pretreatment, EGF 100 ng/ml 1 h, estimated range stated for both inhibitors, FIG. 2
Protocol: The spontaneously immortalized skin keratinocyte cell line HaCaT (kindly provided by Prof. N. Fusenig, Heidelberg, Deutsches Krebsforschungszentrum, Germany) was cultured in DMEM supplemented with 10% (v/v) FBS, 0.3 mg/ml glutamine, and 0.1 mg/ml gentamicin at 37° C. with 5% CO2 in a humidified atmosphere. For release assays, flow cytometry cell cycle analysis and in vitro cPLA2α activity assay, cells were grown in 48 well trays or in 6 well trays, respectively. Cells were cultivated until 2 days post-confluency; serum starved in DMEM/0.5% FBS overnight and processed at day 3 post-confluence to ensure differentiation. Experiments were performed in DMEM/0.5% FBS. Untreated cells without inducing agents were included for unstimulated control. […] Cells were lysed and 200 μg of total protein was analyzed for cPLA2α activity as described. […] Following washing three times with Tris-buffered saline containing […], immunoreactive proteins were detected by horseradish peroxidase-conjugated secondary antibody (1 hour at room temperature) and SuperSignal® West Femto Maximum Sensivity substrate. Blots were analyzed by the BioRad Image Lab software, and target protein band intensities were normalized to α-tubulin. […] After labelling, the cells were washed twice with phosphate-buffered saline (PBS) containing fatty acid free BSA (2 mg/ml) (fBSA) in order to remove unincorporated radioactivity. […]

SMILES: CC/C=C\C/C=C\C/C=C\C/C=C\C/C=C\CCSCC(=O)C(F)(F)F [AVX002]
- IC50: 300 to 1000 nM
